## Primary screen of a compound library

Each number is a percent effect as filed.
The controls that fix the scale are not given in the record; negative values are as filed.
This is an unselected part of the compounds tested.
Two or more numbers in one place are separate tests of the same structure; such repeats can differ widely.

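Viability assay of Plasmodium falciparum sporozoites; the read-out is not stated. The concentration is filed as 10 mM, unlikely as a test dose, so the dose is not known. The record gives no direction; compounds that gave an IC50 in retests scored well above the rest, so higher reads as lower viability. Strong results were mostly tested again. Size under these conditions: about 34,000 compounds, about 280 of them at 50% or above in at least one test.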

{"compound": "Cc1cccc(CN2CCCC3(CCN(CC(=O)N(C)C)C3=O)C2)n1.O=C(O)C(F)(F)F", "stereo": "configuration not stated", "Percent Effect": 2.517}
{"compound": "O=C(Nc1ccccc1)N1CCN(Cc2noc(C3CC3)n2)CC1", "Percent Effect": -0.5384}
{"compound": "CCOC(=O)c1c(NC(=O)CN2CCN(C(C)=O)CC2)sc(C)c1C", "Percent Effect": 9.758}
{"compound": "O=C(Nc1cccnc1)N1CCC(n2ccc(C(F)(F)F)n2)CC1", "Percent Effect": -4.368}
{"compound": "Cn1cccc1C(=O)N1CCC2(CC1)c1nc[nH]c1CCN2S(C)(=O)=O", "Percent Effect": "-20.73 & -17.94"}
{"compound": "CS(=O)(=O)N1CCC(C(=O)N2CCN(Cc3cccc(Cl)c3)CC2)CC1", "Percent Effect": 2.743}
{"compound": "COc1ccc(CN2CCc3[nH]nc(C(=O)N(C)C)c3C2)cc1.O=C(O)C(F)(F)F", "Percent Effect": 7.093}
{"compound": "CCc1nccn1-c1cccc(C2CCCN2S(=O)(=O)N(C)C)n1", "stereo": "configuration not stated", "Percent Effect": 7.029}
{"compound": "Cc1nn(C)c(C)c1C1CCCN1C(=O)c1cnccn1", "stereo": "configuration not stated", "Percent Effect": 2.557}
{"compound": "O=C(O)C(F)(F)F.O=C(O)C(F)(F)F.O=C(c1ccnnc1)N1CCN(Cc2ccncc2)c2ncccc2C1", "Percent Effect": 2.361}
{"compound": "[H][C@@]12CCN(Cc3ccco3)C[C@@]1([H])O[C@@H](C)C2", "Percent Effect": -7.729}
{"compound": "O=C(O)C(F)(F)F.[H][C@@]12CN(C(=O)N3CCCC3)C[C@]1([H])OCCN2Cc1c(C)noc1C", "Percent Effect": -24.88}
{"compound": "CCCn1ccnc1-c1cccc(NC(=O)[C@H]2CCC(=O)N2)c1", "Percent Effect": -9.602}
{"compound": "Cc1noc(C)c1-c1cncc(C2CCCN2Cc2ncccc2F)n1", "stereo": "configuration not stated", "Percent Effect": 11.55}
{"compound": "O=C(O)C(F)(F)F.[H][C@@]12CN(Cc3cccc(F)c3)C[C@]1([H])CN(C(=O)c1cccn1C)C2", "Percent Effect": 13.57}
{"compound": "COc1ccc(-c2nnc(CNCCn3cc(C)cn3)o2)cc1", "Percent Effect": 6.955}
{"compound": "CCc1nc(C2CCCN2C(=O)CCc2cscn2)no1", "stereo": "configuration not stated", "Percent Effect": 6.319}
{"compound": "CC(CO)CSc1ncnc2[nH]ncc12", "stereo": "configuration not stated", "Percent Effect": -3.395}
{"compound": "COc1ccc(OC)c([C@@H]2N[C@H](c3nccs3)Cc3ccsc32)c1", "Percent Effect": 6.333}
{"compound": "[H][C@@]12CN(CC3CCOC3)C[C@]1([H])OCCN2c1ncc(F)cn1", "stereo": "some centres not stated", "Percent Effect": 0.08772}
{"compound": "Cc1ccccc1OCC(=O)N1CCN(C2CCOC2=O)CC1", "stereo": "configuration not stated", "Percent Effect": -2.447}
{"compound": "Cl.Cn1ncc2c1CCCC2NCc1cc(Br)cs1", "stereo": "configuration not stated", "Percent Effect": "6.252 & 7.152 & 13.18"}
{"compound": "CC(C)(C)OC(=O)N1CCCc2ccc(NCc3ncc[nH]3)cc21", "Percent Effect": 10.47}
{"compound": "O=C(CC1=CCCCC1)NCCc1csc(N2CCCC2)n1", "Percent Effect": 1.288}
{"compound": "CC(C)(C)n1cc(C2=CCN(CCc3ccccn3)CC2)cn1", "Percent Effect": "78.88 & 77.42"}
{"compound": "CC(C)CCOCCNC(=O)Nc1cc(C(F)(F)F)c[nH]c1=O", "Percent Effect": 0.4177}
{"compound": "Cc1ccc(C(=O)N2CCc3nc4c(C)csc4c(=O)n3CC2)cn1", "Percent Effect": -2.343}
{"compound": "CCc1nc(CN(C)C2CCN(CCNS(=O)(=O)CC)C2)no1", "stereo": "configuration not stated", "Percent Effect": 0.9804}
{"compound": "O=C(Cc1ccccc1)NCc1ccc(-c2ccccc2C(=O)O)cn1", "Percent Effect": 3.741}

From ChEMBL document CHEMBL3988442, “University of Dundee, Small-Polar-MMV Screening Library” (2021).